Some of the results follow.

The chains behind the UniProt entries cited, without tags or fusion partners.
UniProt Q0JBA9, entry or part of it: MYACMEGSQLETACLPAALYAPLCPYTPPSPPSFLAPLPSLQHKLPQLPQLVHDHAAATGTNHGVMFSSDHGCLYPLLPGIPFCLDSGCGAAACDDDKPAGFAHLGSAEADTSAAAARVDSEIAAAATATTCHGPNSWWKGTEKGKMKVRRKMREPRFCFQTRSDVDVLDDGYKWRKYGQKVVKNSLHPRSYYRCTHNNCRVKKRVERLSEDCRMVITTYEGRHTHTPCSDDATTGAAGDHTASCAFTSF

This assay addresses OsWRKY34 (Oryza sativa, UniProt Q0JBA9 1-250). Description: protein-binding microarray (RPBM); PBS, 2% BSA, 51.3 ng/ul salmon testes DNA, 50 uM zinc acetate, 200 nM TF, 25 C, 1 h; high values mean tight binding. The following applies: protein: recombinant; tags: N-terminal polyhistidine and DsRed monomer fusion (pET32a); label: CyDye5-dUTP incorporated in the synthesized complementary strand; 3' TTTTT single-stranded linker to array surface; dsDNA, one strand shown. In outline: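 For the binding signal, per-feature fluorescence intensity was read in arbitrary units on an Axon 4000B scanner. Before scanning, a 2% BSA-blocked custom Agilent array made double-stranded with Cy5-dUTP was washed after 1 h at 25 °C with 200 nM protein and 50 µM zinc acetate. The proteins were Ni–NTA-purified transcription factors with N-terminal polyhistidine and DsRed fusions, expressed in E. coli BL21-CodonPlus.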
As to “GCGCGTCTCTCTCTCTCTCTCCTTCCGGGCAGCGCTTGCTCGGAGTCACCTAGTGCAG”, the binding signal was 9760 fluorescence intensity (a.u.).

In the case of “TTTTATCCCTCGAGGGGACATCCCCTTGTTTTATGCATGTCGGAGTCACCTAGTGCAG”, the binding signal is 8790 fluorescence intensity (a.u.).

As for “ATTCCTACCCGGACTCTTTATTTACCTTTCCCCAATTCTCCGGAGTCACCTAGTGCAG”, the binding signal is 10200 fluorescence intensity (a.u.).

As to “ACTTCCCCTGTGTCCATGTTCGCCGCTGGTTCTTGATTCGCGGAGTCACCTAGTGCAG”, the binding signal is 10600 fluorescence intensity (a.u.).

Consider “TTACACCGATATTTTTTTAGTTGATTTATAAATCTAATTTCGGAGTCACCTAGTGCAG”, for which the binding signal was 8240 fluorescence intensity (a.u.).

Regarding “CTCTCAAAATAATGTCTTTTCACCTCTTGAATGCCATCTACGGAGTCACCTAGTGCAG”, the binding signal is 8850 fluorescence intensity (a.u.).

For the sequence “CCAGTATCCCGAACCCTCTGGCCGTCCACTGTTCCTCGCCCGGAGTCACCTAGTGCAG”, the binding signal was 10900 fluorescence intensity (a.u.).

With “CCCACGCAGATCTCCGCTTTTTCCCGGCGGCAACCACGCCCGGAGTCACCTAGTGCAG”, the binding signal was 10200 fluorescence intensity (a.u.).

On to “GTCCCTGTCGCCTTTATTAGCTGCGTGCAATTCCTTTCCACGGAGTCACCTAGTGCAG”, for which the binding signal was 8330 fluorescence intensity (a.u.).

In the case of “ACGTCTAAATCCAACTCCACCTCTGTAGTTTATTTCGTAACGGAGTCACCTAGTGCAG”, the binding signal is 8450 fluorescence intensity (a.u.).

As for “TGCCGTCCCTAGCTCCGCCCGCCTCCTCCTCCTCCGGTACCGGAGTCACCTAGTGCAG”, the binding signal was 8650 fluorescence intensity (a.u.).

On to “TAATGGTTACCTGCCGGCCGTCCCTTCAACCACCAACAAACGGAGTCACCTAGTGCAG”, for which the binding signal is 10400 fluorescence intensity (a.u.).

As for “GTCGCACTCACTCACTCGCATCCTCTCCTCTCAAATACTCCGGAGTCACCTAGTGCAG”, the binding signal was 12300 fluorescence intensity (a.u.).

For “CGTGTAGTGTAAATGTTGGGGCAGGTGATATTAATGTTCCCGGAGTCACCTAGTGCAG”, the binding signal was 9980 fluorescence intensity (a.u.).

Turning to “GATGTTTGGGGTGCTTTTTGTAGTTTTTCCTGTATGTATTCGGAGTCACCTAGTGCAG”, the binding signal is 12200 fluorescence intensity (a.u.).

“ACATTCAAGTTACTTTCATATATTAAGTCAACGGTTCATTCGGAGTCACCTAGTGCAG”: the binding signal is 8830 fluorescence intensity (a.u.).

Consider “CTCGTGTTCTAGTAGTTGTCAGTGTGTAGCCCATACCTATCGGAGTCACCTAGTGCAG”, for which the binding signal was 8610 fluorescence intensity (a.u.).

On to “GCCCCACCACCCGTCGCCTCCGCTCTTCGCCGCGCCAGATCGGAGTCACCTAGTGCAG”, for which the binding signal was 8840 fluorescence intensity (a.u.).

As to “GTGGTGTGCATAAGAGGAAAAATTACTGATTACTAGTATTCGGAGTCACCTAGTGCAG”, the binding signal was 9740 fluorescence intensity (a.u.).

For “ATAATGCGCGCTTCTTTTTCCAAATTGTGTTCTTAGTTGACGGAGTCACCTAGTGCAG”, the binding signal is 8920 fluorescence intensity (a.u.).

Consider “TTAACTTTTACTCTAATTTATTCTCCTGTACCTTTTTATACGGAGTCACCTAGTGCAG”, for which the binding signal was 8250 fluorescence intensity (a.u.).

For the sequence “GGATTAGGATCTTCTTCAGTCAACTATACGTCTGTATCGTCGGAGTCACCTAGTGCAG”, the binding signal was 9360 fluorescence intensity (a.u.).

Regarding “CTCCACCCCACAATCTCTCTCTCTCTCTCTCTCTCTCTCTCGGAGTCACCTAGTGCAG”, the binding signal is 9620 fluorescence intensity (a.u.).

Turning to “AGTCCACTTACATGTGAGCCACACATGGTTTTTCTTTCTGCGGAGTCACCTAGTGCAG”, the binding signal was 10300 fluorescence intensity (a.u.).

Regarding “GCCGCGCTCGCCCATCGCCGCTCCGTCGCCACGCTCGCCCCGGAGTCACCTAGTGCAG”, the binding signal was 9640 fluorescence intensity (a.u.).

For the sequence “GTGTGTGGGTGGTGGTATATTTTTTTTCTTTCTCTTGGTTCGGAGTCACCTAGTGCAG”, the binding signal was 12800 fluorescence intensity (a.u.).

Regarding “GTAATTGGTTTGGTCAACAGCACAGCTAGCTTCTCCGTACCGGAGTCACCTAGTGCAG”, the binding signal is 10300 fluorescence intensity (a.u.).

For “TTGCCGTCGTCCGCCGCCCGCCCCTCTGCGCAGAGAGAGGCGGAGTCACCTAGTGCAG”, the binding signal is 9540 fluorescence intensity (a.u.).

With “ACTCCCTCCGTTTCAAAATGTTTGACATCATTGACTTTTTCGGAGTCACCTAGTGCAG”, the binding signal is 11100 fluorescence intensity (a.u.).

Take “GCCCATCAAGGCTTTCACCCGCGTTTTCTCATTCAGTCCCCGGAGTCACCTAGTGCAG”: the binding signal is 8300 fluorescence intensity (a.u.).

Take “CATATTAAGGTTTTTTCATCGAAGTTTATTTTTCAGCCTTCGGAGTCACCTAGTGCAG”: the binding signal is 8070 fluorescence intensity (a.u.).

Consider “TGCACCTGGCCGCGTTGACCGTTCGAAATGTATATATTCCCGGAGTCACCTAGTGCAG”, for which the binding signal was 19600 fluorescence intensity (a.u.).

As to “ATTGTGTGTTTGTGGTTGGTTGGCCAATAATGAATTGAAACGGAGTCACCTAGTGCAG”, the binding signal was 8400 fluorescence intensity (a.u.).

Regarding “TGGGTGGGGTGGAGGGCCGAGCGCGAGAGATTTCGGAGAGCGGAGTCACCTAGTGCAG”, the binding signal is 14900 fluorescence intensity (a.u.).

With “CCCGCCGCGCGCCTCCTCCCCGCCTCGCCGCCGGCGCGCACGGAGTCACCTAGTGCAG”, the binding signal is 8240 fluorescence intensity (a.u.).

With “TCGACTGTCTCAAATCAGTTTGCTTTCTTGATCTTTCTGCCGGAGTCACCTAGTGCAG”, the binding signal is 11200 fluorescence intensity (a.u.).

For “GGGACGAAGATATCTCTCGTTTCATTTCATGCATATCACCCGGAGTCACCTAGTGCAG”, the binding signal was 8250 fluorescence intensity (a.u.).

On to “TCTGTGGCCATCTCCTCCTAGTCCTAGGCTCGCGTCAATGCGGAGTCACCTAGTGCAG”, for which the binding signal was 9610 fluorescence intensity (a.u.).

Regarding “GCCTCTAATGTCAATCAGTTTCGCTTTCCATCCTTCTCATCGGAGTCACCTAGTGCAG”, the binding signal was 10500 fluorescence intensity (a.u.).

As for “ACAGTCAGCTGTGTTTTTGTTATTTGCTTCGATTATCTTCCGGAGTCACCTAGTGCAG”, the binding signal is 9310 fluorescence intensity (a.u.).

As for “AGCACACCGAAATTCCAACGAGAACCCCACGCATTATTCCCGGAGTCACCTAGTGCAG”, the binding signal was 8210 fluorescence intensity (a.u.).

Turning to “AACGCAACCACCACAACACGCCATGCATCCCATCAAACCGCGGAGTCACCTAGTGCAG”, the binding signal is 9960 fluorescence intensity (a.u.).

Values taken from PMC7819943, “Rice protein-binding microarrays: a tool to detect cis-acting elements near promoter regions in rice”.
